Data from PMC9762571.
These are yes or no findings as the source states them, for the method shown. Binding seen in cells or lysates may run through a third protein. These calls come from enrichment with a bait or labelling near it, and not all partners need be listed.

Target: ROP1-HA of the T. gondii PRU strain (PRU ROP1-HA) (Toxoplasma gondii (PRU strain))
Test: affinity purification with mass spectrometry; anti-HA agarose matrix overnight at 4°C on lysates (50 mM Tris, 150 mM NaCl, 0.2% Triton X-100, pH 7.5) of IFNγ-stimulated primary C57BL/6J MEFs infected for 24 h with PRU ROP1-HA or parental PRUΔKU80; in-gel digest, LC-MS/MS, iBAQ

Row | Binder | binding
1 | Complement Component 1q Binding Protein (C1QBP), mouse (protein, UniProt O35658 71-278) LHTEGDKAFVEFLTDEIKEEKKIQKHKSLPKMSGDWELEVNGTEAKLLRKVAGEKITVTFNINNSIPPTFDGEEEPSQGQKAEEQEPERTSTPNFVVEVTKTDGKKTLVLDCHYPEDEIGHEDEAESDIFSIKEVSFQATGDSEWRDTNYTLNTDSLDWALYDHLMDFLADRGVDNTFADELVELSTALEHQEYITFLEDLKSFVKNQ | binds
2 | USP17LA (protein, UniProt Q61068 1-526) MVVALSFPEADPALSSPDAPELHQDEAQVVEELTVNGKHSLSWESPQGPGCGLQNTGNSCYLNAALQCLTHTPPLADYMLSQEHSQTCCSPEGCKLCAMEALVTQSLLHSHSGDVMKPSHILTSAFHKHQQEDAHEFLMFTLETMHESCLQVHRQSKPTSEDSSPIHDIFGGWWRSQIKCLLCQGTSDTYDRFLDIPLDISSAQSVKQALWDTEKSEELCGDNAYYCGKCRQKMPASKTLHVHIAPKVLMVVLNRFSAFTGNKLDRKVSYPEFLDLKPYLSEPTGGPLPYALYAVLVHDGATSHSGHYFCCVKAGHGKWYKMDDTKVTRCDVTSVLNENAYVLFYVQQANLKQVSIDMPEGRINEVLDPEYQLKKSRRKKHKKKSPFTEDLGEPCENRDKRAIKETSLGKGKVLQEVNHKKAGQKHGNTKLMPQKQNHQKAGQNLRNTEVELDLPADAIVIHQPRSTANWGRDSPDKENQPLHNADRLLTSQGPVNTWQLCRQEGRRRSKKGQNKNKQGQRLLLVC | binds
